This assay addresses mPD-L1 (mouse) (UniProt Q9EP73). The experiment in a line: competitive ELISA: mPD-L1 pre-incubated with AFFIMER, added to coated PD-1, bound PD-L1 detected. In general terms: ELISA stands for enzyme-linked immunosorbent assay.

The chains behind the UniProt entries cited, without tags or fusion partners.
UniProt Q9EP73: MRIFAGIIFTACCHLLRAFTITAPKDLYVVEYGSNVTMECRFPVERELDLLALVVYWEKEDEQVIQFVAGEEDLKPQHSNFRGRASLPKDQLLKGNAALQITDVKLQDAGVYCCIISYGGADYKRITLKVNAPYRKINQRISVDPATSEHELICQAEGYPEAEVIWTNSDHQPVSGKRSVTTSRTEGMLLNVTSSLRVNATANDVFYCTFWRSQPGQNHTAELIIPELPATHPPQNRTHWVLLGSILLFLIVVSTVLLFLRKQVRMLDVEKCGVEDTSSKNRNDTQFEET

Results are given in words; binding and its absence hold for the method and conditions named. Some binding calls cover weakened binding; strength is not graded here.

B1: AVA04-182 XT20 (designed binder)
chain: MIPRGLSEAKPATPEIQEIVDKVKPQLEEKTNETYGKLEAVQYKTQVLAFALPEFEYMSTNYYIKVRAGDNKYMHLKVFNGPPMIRRKNEVADRVLTGYQVDKNKDDELTGFAEAAAKEAAAKEAAAKEAAAKEAAAKEAAAKMIPRGLSEAKPATPEIQEIVDKVKPQLEEKTNETYGKLEAVQYKTQVLAFALPEFEYMSTNYYIKVRAGDNKYMHLKVFNGPPMIRRKNEVADRVLTGYQVDKNKDDELTGFAEAAAKEAAAKEAAAKEAAAKEAAAKEAAAKMIPRGLSEAKPATPEIQEIVDKVKPQLEEKTNETYGKLEAVQYKTQVLANFFQRRWPGSTNYYIKVRAGDNKYMHLKVFNGPWKFRNTDRGADRVLTGYQVDKNKDDELTGFHHHHHH
For B1, the binding result is recorded as “binds”.

Values taken from patent US20230272081A1 (AVACTA LIFE SCIENCES, published 2023).
